Measurements as given in patent US20220160798A1 (priority 2019, published 2022).

Assays:
CREB = assay: Antibody fluorescent staining of brain hippocampus: CREB; assay type: in vivo, mice; conditions: reduction vs control group
[1] = test system: glial fibrillary acidic protein (GFAP); assay: Antibody fluorescent staining of brain hippocampus: GFAP (astrocytes); assay type: in vivo, mice; conditions: dentate gyrus (DG)

SMILES: COc1cc2c(cc1OC)C(=O)C(CC1CCN(Cc3ccccc3)CC1)C2 (centres unmarked) [donepezil]
- activity of CREB (fluorescent staining) (CREB): slight
- GFAP-positive response / activated astrocytes [1]: activated astrocytes were reduced
